The experiment has as its system Nude mice, LX-1 lung xenograft intrarenal, tumor weight T/C. Description: NCI In Vivo Anticancer Drug Screen. Data for tumor model Human Lung LX-1 Xenograft (intrarenal inoculation) in NU/NU BALB/C (nude) mice. The following applies: T/C endpoint: mean tumor weight change, higher T/C = larger tumour; for T/C: evaluated on day 11. On the procedure: The antitumor activity of compounds was measured in mice bearing transplantable tumors. Survival or tumor size were measured and the results are expressed as the measurement made in the treated group (T) divided by the measurement made in the vehicle treated control group (C). The tumor model used in this assay is Human Lung LX-1 Xenograft (intrarenal inoculation) in NU/NU BALB/C (nude) mice
A general note: In xenograft studies the graft and the host belong to different species.

Setting [1] is: dose: 150.0 mg/kg/injection, schedule: Q04DX003 (sc), vehicle: saline.
The mark [2] stands for this setting: dose: 300.0 mg/kg/injection, schedule: Q04DX003 (sc), vehicle: saline.

The list shows only some results of the screen, not a fair sample: it gathers tests that were run many times, whatever their T/C, doses with no T/C, and many T/C values between a quarter and a half above the control. Further doses and runs are listed elsewhere. T/C is the treated group as % of the vehicle group. Schedules are NCI's codes, read here as Q, the interval in days (D) or hours (H), X, the number of doses. Some entries give survivors of the animals treated and no T/C: the source holds a T/C of zero for them, seemingly a mark for toxic or unscored doses. Survivors were counted at the toxicity check, usually on the fifth day, unless a day is given; later deaths do not show.

For `Cc1ccc(S(=O)(=O)NC(=S)S)cc1`, for the setting “dose: 800.0 mg/kg/injection, schedule: Q01DX010 (sc), vehicle: saline with Tween-80”, the survivor count was 0 of 3 on day 11.

With `COCC(O)Cn1ccnc1[N+](=O)[O-]` (stereo not drawn), the T/C by setting is: (dose: 300.0 mg/kg/injection, schedule: Q04DX003 (sc), vehicle: suspension in saline) 135 % of control; (dose: 600.0 mg/kg/injection, schedule: Q04DX003 (sc), vehicle: suspension in saline) 126 % of control; (dose: 1200.0 mg/kg/injection, schedule: Q04DX003 (sc), vehicle: suspension in saline) 140 % of control.

As for `COC1=C(OC)C(=O)C(SC/C=C(\C)CCCC(C)CCCC(C)CCCC(C)C)=CC1=O` (stereo not drawn), the survivor count (dose: 2400.0 mg/kg/injection, schedule: Q04DX003 (ip), vehicle: saline with Tween-80) is given as 0 of 6 on day 11.

Turning to `COC1N(C2CC(O)C(CO)O2)C(=O)NC(=O)C1(F)Br` (stereo not drawn), for the setting “dose: 200.0 mg/kg/injection, schedule: Q01DX010 (sc), vehicle: saline”, the survivor count was 0 of 3 on day 11. On to `Nc1ccc(S(=O)(=O)Nc2cnc3c(Cl)cccc3n2)cc1`, for which, under “dose: 1200.0 mg/kg/injection, schedule: Q04DX003 (ip), vehicle: DMSO”, the survivor count is 0 of 6 on day 11. `CCCCCCCCCCCCCCCCCCOCC(COP(=O)([O-])OCC[N+](C)(C)C)OC` (stereo not drawn): the survivor count reads like this: (dose: 75.0 mg/kg/injection, schedule: Q04DX003 (sc), vehicle: saline) 1 of 6 on day 11; under setting [1], 0 of 6 on day 11; under setting [2], 0 of 6 on day 11.

On to `CC(CN1CC(=O)NC(=O)C1)N1CC(=O)NC(=O)C1` (stereo not drawn), for which the survivor count (dose: 1200.0 mg/kg/injection, schedule: Q04DX003 (sc), vehicle: Klucel (hydroxypropylcellulose) (HPC)) is given as 0 of 6 on day 11.

Consider `C/C=C(\C)c1cc(=O)c2c(C)cc3c(c2o1)C(=O)c1c(O)c(C2CC(C)(N(C)C)C(OC(C)=O)C(C)O2)cc(C2CC(N(C)C)C(O)C(C)O2)c1C3=O` (stereo not drawn), for which the survivor count is reported as 3 of 5 on day 11 (dose: 10.0 mg/kg/injection, schedule: Q04DX003 (sc), vehicle: saline); 2 of 6 on day 11 (dose: 20.0 mg/kg/injection, schedule: Q04DX003 (sc), vehicle: saline); 0 of 6 on day 11 (dose: 40.0 mg/kg/injection, schedule: Q04DX003 (sc), vehicle: saline); 0 of 6 on day 11 (dose: 80.0 mg/kg/injection, schedule: Q04DX003 (sc), vehicle: saline). In the case of `O=C(CN1CCOCC1)Nc1nc(-c2ccc(Cl)cc2)cs1`, under “dose: 50.0 mg/kg/injection, schedule: Q04DX003 (ip), vehicle: saline with Tween-80”, the T/C was 135 % of control. For `CC(C#N)(C#N)N=Nc1ccc(Cl)cc1Cl`, the T/C (dose: 300.0 mg/kg/injection, schedule: Q04DX003 (sc), vehicle: saline with Tween-80) was 125 % of control.

With `O=C1NC(=O)NC(C(=O)O)N1`, the T/C (dose: 800.0 mg/kg/injection, schedule: Q04DX003 (sc), vehicle: Klucel (hydroxypropylcellulose) (HPC)) is 140 % of control.

On to `FC(F)(F)c1nc2nc(Cl)c(Cl)nc2[nH]1`, for which the survivor count (dose: 600.0 mg/kg/injection, schedule: Q04DX003 (sc), vehicle: saline with Tween-80) is reported as 0 of 6 on day 11. `C=C(C)C(=O)O[C@H]1CC2=C[C@@H](C[C@@]3(C)O[C@@H]3[C@H]3OC(=O)C(=C)[C@@H]31)OC2=O`: under “dose: 600.0 mg/kg/injection, schedule: Q04DX003 (sc), vehicle: Klucel (hydroxypropylcellulose) (HPC)”, the survivor count was 0 of 6 on day 11. As to `O=C(CCBr)N1CCN(C(=O)CCBr)CC1`, the survivor count is, setting by setting: (dose: 100.0 mg/kg/injection, schedule: Q01DX010 (sc), vehicle: Klucel (hydroxypropylcellulose) (HPC)) 0 of 3 on day 11; (dose: 200.0 mg/kg/injection, schedule: Q01DX010 (sc), vehicle: Klucel (hydroxypropylcellulose) (HPC)) 0 of 3 on day 11; (dose: 400.0 mg/kg/injection, schedule: Q01DX010 (sc), vehicle: Klucel (hydroxypropylcellulose) (HPC)) 0 of 3 on day 11. Consider `CCCNC1=C(C)C(=O)C2=C(C1=O)[C@H](COC(N)=O)[C@]1(OC)[C@@H]3N[C@@H]3CN21`, for which the survivor count is listed as 0 of 6 on day 11 (dose: 36.0 mg/kg/injection, schedule: Q04DX003 (sc), vehicle: saline + alcohol) and 0 of 6 on day 11 (dose: 48.0 mg/kg/injection, schedule: Q04DX003 (sc), vehicle: saline + alcohol). With `COc1cccc2c1C(=O)c1c(O)c3c(c(O)c1C2=O)CC(O)(/C(C)=N/NC(=O)CCC(=O)N/N=C(\C)C1(O)Cc2c(O)c4c(c(O)c2C(OC2CC(N)C(O)C(C)O2)C1)C(=O)c1c(OC)cccc1C4=O)CC3OC1CC(N)C(O)C(C)O1` (stereo not drawn), the survivor count by setting is: (dose: 25.0 mg/kg/injection, schedule: Q01DX010 (sc), vehicle: water) 0 of 6 on day 11; (dose: 50.0 mg/kg/injection, schedule: Q01DX010 (sc), vehicle: water) 0 of 6 on day 11.

For `c1cc2n(n1)CCN2`, the survivor count is on record as 1 of 3 on day 11 (dose: 200.0 mg/kg/injection, schedule: Q01DX010 (ip), vehicle: saline); 0 of 3 on day 11 (dose: 400.0 mg/kg/injection, schedule: Q01DX010 (ip), vehicle: saline); 0 of 3 on day 11 (dose: 400.0 mg/kg/injection, schedule: Q01DX010 (sc), vehicle: saline); 0 of 3 on day 11 (dose: 1333.3 mg/kg/injection, schedule: Q04DX003 (sc), vehicle: saline).

In the case of `N#Cc1cn(C2OC(CO)C(O)C2O)c2ncnc(N)c12` (stereo not drawn), the T/C (dose: 0.5 mg/kg/injection, schedule: Q01DX010 (sc), vehicle: saline) was 143 % of control. The survivor count (dose: 4.0 mg/kg/injection, schedule: Q01DX010 (sc), vehicle: saline) is reported as 0 of 3 on day 11. Take `CCC1OC(OC)C=CC1=O` (stereo not drawn): the survivor count under setting [1] is reported as 0 of 6 on day 11 and the survivor count under setting [2] is reported as 0 of 6 on day 11. As for `Cc1c(-c2ccc(-c3ccccc3F)cc2)nc2ccc(F)cc2c1C(=O)O`, the survivor count (dose: 32.0 mg/kg/injection, schedule: Q01DX009 (ip), vehicle: water) was 1 of 6 on day 11. On to `Cn1cnc([N+](=O)[O-])c1[Se]c1nc(N)nc2nc[nH]c12`, for which the survivor count reads like this: (dose: 200.0 mg/kg/injection, schedule: Q01DX010 (sc), vehicle: water) 0 of 3 on day 11; (dose: 400.0 mg/kg/injection, schedule: Q01DX010 (sc), vehicle: water) 0 of 3 on day 11.

The values are drawn from PubChem BioAssay AID266 (DTP/NCI, 2004).
